Results are given in words; binding and its absence hold for the method and conditions named. For some of these results: In cells and extracts the contact can be indirect. Some results given as binding are weak or reduced against the parent protein; the word gives no strength.

Protein sequences, listed by entry. Tags and fused reporters are not part of them.
UniProt Q9H1Y0: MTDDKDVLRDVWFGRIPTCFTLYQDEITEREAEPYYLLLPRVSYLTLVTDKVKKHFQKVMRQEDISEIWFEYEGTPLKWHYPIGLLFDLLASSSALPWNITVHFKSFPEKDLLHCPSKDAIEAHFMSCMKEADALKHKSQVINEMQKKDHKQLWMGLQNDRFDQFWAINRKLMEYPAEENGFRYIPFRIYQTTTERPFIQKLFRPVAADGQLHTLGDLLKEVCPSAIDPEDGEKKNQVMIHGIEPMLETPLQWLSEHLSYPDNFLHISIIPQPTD
UniProt P12956: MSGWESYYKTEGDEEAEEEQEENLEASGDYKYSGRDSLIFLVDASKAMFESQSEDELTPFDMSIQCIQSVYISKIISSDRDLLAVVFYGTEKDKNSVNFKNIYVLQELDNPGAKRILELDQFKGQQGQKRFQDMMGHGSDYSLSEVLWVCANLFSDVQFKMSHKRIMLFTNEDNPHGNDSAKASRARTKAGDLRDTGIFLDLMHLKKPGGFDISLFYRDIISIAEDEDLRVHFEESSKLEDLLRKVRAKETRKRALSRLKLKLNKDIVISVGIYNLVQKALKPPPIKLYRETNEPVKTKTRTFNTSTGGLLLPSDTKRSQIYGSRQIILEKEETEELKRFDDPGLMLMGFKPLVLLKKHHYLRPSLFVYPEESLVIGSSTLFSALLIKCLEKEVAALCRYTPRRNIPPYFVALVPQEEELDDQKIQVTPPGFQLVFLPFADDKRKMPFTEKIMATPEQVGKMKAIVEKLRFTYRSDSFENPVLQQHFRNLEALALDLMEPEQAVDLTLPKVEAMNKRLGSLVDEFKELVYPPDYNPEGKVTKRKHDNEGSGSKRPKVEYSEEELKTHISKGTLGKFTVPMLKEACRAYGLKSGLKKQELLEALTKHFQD

The results in this text go back to paper PMC9114114.

The target of test [1] is endogenous ATG5 (human (endogenous in HEK293T)) (UniProt Q9H1Y0). Put plainly: co-IP; co-IP from cellular fractions of doxorubicin treated HEK293T cells.
Test [2] has the same target. Put plainly: co-IP; endogenous IP from HEK293T; antibody-coupled protein G or A-agarose, 2 mg lysate; rabbit serum as control; DMSO or etoposide 24 h.
Test [3] deals with non-tagged full-length human ATG5 (human) (UniProt Q9H1Y0). Put plainly: co-IP; HEK293T transfected with non-tagged ATG5; IP with anti-ATG5 antibody on protein G or A-agarose, 2 mg lysate; blots for endogenous Ku70 and Ku80; DMSO or etoposide.
Test [4] deals with endogenous Ku70 (human (endogenous in HEK293T and HeLa)) (UniProt P12956). Put plainly: SEC; Superose 6 10/300 GL (5-5000 kDa); total cell extracts (DMSO, etoposide or doxorubicin 24 h); fractions immunoblotted with anti-ATG5 and anti-Ku70. For orientation: SEC sorts molecules by how far they enter the pores of the column.

For the substance “endogenous Ku70 (from UniProt P12956 1-609)”, the binding entry in test [1], in test [2] and in test [3] was “binds” each time.
On to “ATG5-12 (from UniProt Q9H1Y0 1-275; O94817 1-140) (complex)”, for which the binding result in test [4] is reported as “binds”.
